No constants are given. Whether binding was seen depends on the method and setting. Binding seen in cells or lysates may run through a third protein. Some binding calls cover weakened binding; strength is not graded here. Tags and fused reporters may be left off the sequences shown.
Biological target: Glucocorticoid receptor (GR) (UniProt P04150)
Experiment: co-IP; lysates of transfected Saos-2 cells (50 mM Tris pH 7.5, 150 mM NaCl, 0.5% NP40) immunoprecipitated overnight with anti-GR polyclonal antibody E-20 on protein A agarose, blotted with anti-HA or anti-Flag; cells untreated or treated with dexamethasone (100 nM) and/or MG132 (30 μM); binding most evident with MG132

By UniProt entry, the sequences of proteins in these tests, tags left out.
UniProt P04150: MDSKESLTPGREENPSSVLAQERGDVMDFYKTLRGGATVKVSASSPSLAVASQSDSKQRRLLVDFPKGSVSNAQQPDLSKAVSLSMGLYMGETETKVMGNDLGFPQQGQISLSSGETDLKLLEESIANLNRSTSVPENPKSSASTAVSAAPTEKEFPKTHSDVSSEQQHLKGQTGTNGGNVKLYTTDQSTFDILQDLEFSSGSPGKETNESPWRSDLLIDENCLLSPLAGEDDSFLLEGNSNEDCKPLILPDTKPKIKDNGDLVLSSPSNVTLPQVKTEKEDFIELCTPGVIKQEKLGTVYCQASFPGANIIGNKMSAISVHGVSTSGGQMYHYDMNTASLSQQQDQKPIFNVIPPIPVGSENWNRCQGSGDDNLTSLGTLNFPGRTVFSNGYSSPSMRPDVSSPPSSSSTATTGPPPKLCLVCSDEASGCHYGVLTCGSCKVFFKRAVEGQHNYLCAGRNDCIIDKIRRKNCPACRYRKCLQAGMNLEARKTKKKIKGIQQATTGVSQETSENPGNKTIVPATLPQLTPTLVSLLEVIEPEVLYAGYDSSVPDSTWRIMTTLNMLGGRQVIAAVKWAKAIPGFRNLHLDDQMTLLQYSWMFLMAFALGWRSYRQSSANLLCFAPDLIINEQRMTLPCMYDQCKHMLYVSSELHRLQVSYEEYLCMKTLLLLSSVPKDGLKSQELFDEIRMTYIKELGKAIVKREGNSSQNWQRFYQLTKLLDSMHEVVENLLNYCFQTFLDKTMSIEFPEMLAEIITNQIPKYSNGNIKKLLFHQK

Row | Molecule | binding
1 | HA-tagged p53 wild type (from UniProt P04637 1-393) | binds
2 | HA-tagged human p73β (protein, UniProt O15350-2 1-499) MAQSTATSPDGGTTFEHLWSSLEPDSTYFDLPQSSRGNNEVVGGTDSSMDVFHLEGMTTSVMAQFNLLSSTMDQMSSRAASASPYTPEHAASVPTHSPYAQPSSTFDTMSPAPVIPSNTDYPGPHHFEVTFQQSSTAKSATWTYSPLLKKLYCQIAKTCPIQIKVSTPPPPGTAIRAMPVYKKAEHVTDVVKRCPNHELGRDFNEGQSAPASHLIRVEGNNLSQYVDDPVTGRQSVVVPYEPPQVGTEFTTILYNFMCNSSCVGGMNRRPILIIITLEMRDGQVLGRRSFEGRICACPGRDRKADEDHYREQQALNESSAKNGAASKRAFKQSPPAVPALGAGVKKRRHGDEDTYYLQVRGRENFEILMKLKESLELMELVPQPLVDSYRQQQQLLQRPSHLQPPSYGPVLSPMNKVHGGMNKLPSVNQLVGQPPPHSSAATPNLGPVGPGMLNNHGHAVPANGEMSSSHSAQSMVSGSHCTPPPPYHADPSLVRTWGP | binds

— publication PMC1716177
